Experiment [1] deals with PA-1. The following applies: read-out: Tazemetostat Day 15 Proliferation IC50; PA-1, long term proliferation day 15.
The test system of experiment [2] is H3K27me3. In words: cells. The conditions noted are these: OVK18, 96 h, read-out: Tazemetostat day 4 H3K327me3 IC50.
Experiment [3] concerns H3K27me3. In words: cells. The following applies: 96 h, read-out: Tazemetostat day 4 H3K327me3 IC50.
Experiment [4] has as its system H3K27me3. Kind of experiment: cells. The conditions noted are these: Homo sapiens, OAW-42, 96 h, read-out: Tazemetostat day 4 H3K327me3 IC50.
Experiment [5] deals with H3K27me3. In words: cells. The following applies: Homo sapiens, PA-1, 96 h, read-out: Tazemetostat day 4 H3K327me3 IC50.
For a further experiment, the system named is Bin-67. In words: cells. The following applies: 360 h, read-out: Tazemetostat Day 15 Proliferation IC50.
A further experiment concerns COV434. Kind of experiment: cells. The following applies: COV434, 360 h, read-out: Tazemetostat Day 15 Proliferation IC50.
The next experiment has as its system TOV112D. In words: cells. The following applies: Homo sapiens, 360 h, read-out: Tazemetostat Day 15 Proliferation IC50.
The subject of the next experiment is OVK18. In words: cells. The conditions noted are these: OVK18, 360 h, read-out: Tazemetostat Day 15 Proliferation IC50.
The test system of the next experiment is TYK-NU. In words: cells. The conditions noted are these: 360 h, read-out: Tazemetostat Day 15 Proliferation IC50.
In a further experiment the test system is JHOC5. Kind of experiment: cells. The following applies: 360 h, read-out: Tazemetostat Day 15 Proliferation IC50.
A further experiment has as its system OAW42. In words: cells. The following applies: Homo sapiens, OAW-42, 360 h, read-out: Tazemetostat Day 15 Proliferation IC50.
In experiment [6] the test system is PA-1. In words: cells. The conditions noted are these: Homo sapiens, PA-1, 360 h, read-out: Tazemetostat Day 15 Proliferation IC50, PA-1, long term proliferation day 15.
The test system of another experiment is COV362. In words: cells. The conditions noted are these: COV362, 360 h, read-out: Tazemetostat Day 15 Proliferation IC50.
A further experiment deals with ES-2. In words: cells. The following applies: Homo sapiens, ES-2, 360 h, read-out: Tazemetostat Day 15 Proliferation IC50.
For another experiment, the system named is CAOV-3. In words: cells. The following applies: Homo sapiens, Caov-3, 360 h, read-out: anti-proliferative IC50.
Another experiment has as its system COV504. In words: cells. The conditions noted are these: COV504, 360 h, read-out: anti-proliferative IC50.
The subject of a further experiment is TOV21G. In words: cells. The conditions noted are these: Homo sapiens, 360 h, read-out: anti-proliferative IC50.
Experiment [7] deals with ovarian cancer cell lines. Kind of experiment: cells. The following applies: 360 h, read-out: day 15 IC50 values for ovarian cancer cell lines.

Where two headings read alike, the source gives them in different places.

For `CCN(c1cc(-c2ccc(CN3CCOCC3)cc2)cc(C(=O)NCc2c(C)cc(C)[nH]c2=O)c1C)C1CCOCC1` [tazemetostat], the IC50 came to 5900 nM in the experiment with PA-1 [1]; 32 nM in the experiment on H3K27me3 [2]; 16 nM with H3K27me3 [3]; 7 nM in the experiment with H3K27me3 [4]; 40 nM with H3K27me3 [5]; 290 nM with Bin-67. Moreover, the IC50 in the experiment with COV434 is 73 nM; with TOV112D, 340 nM; in the experiment on OVK18 it was 860 nM; in the experiment with TYK-NU, more than 10000 nM; in the experiment with JHOC5 it was more than 10000 nM; in the experiment with OAW42, more than 10000 nM. Further, the IC50 is less than 10000 nM in the experiment on PA-1 [6]; more than 10000 nM in the experiment with COV362; more than 10000 nM with ES-2; less than 10000 nM in the experiment on CAOV-3; less than 10000 nM with COV504; less than 10000 nM in the experiment with TOV21G. Besides, in [7], the IC50 was not below 73 nM.

(Values after patent US20220160721A1, “METHODS OF TREATING CANCER” (Epizyme, Inc., priority 2016, published 2022).)
